# Results: publication PMC6193047
# No constants are given. Whether binding was seen depends on the method and setting. In cells and extracts the contact can be indirect. Some binding calls cover weakened binding; strength is not graded here. Tags and fused reporters may be left off the sequences shown.
# T1: 3Flag-tagged Nud1 (S. cerevisiae) (UniProt P32336)
# T1 sequence: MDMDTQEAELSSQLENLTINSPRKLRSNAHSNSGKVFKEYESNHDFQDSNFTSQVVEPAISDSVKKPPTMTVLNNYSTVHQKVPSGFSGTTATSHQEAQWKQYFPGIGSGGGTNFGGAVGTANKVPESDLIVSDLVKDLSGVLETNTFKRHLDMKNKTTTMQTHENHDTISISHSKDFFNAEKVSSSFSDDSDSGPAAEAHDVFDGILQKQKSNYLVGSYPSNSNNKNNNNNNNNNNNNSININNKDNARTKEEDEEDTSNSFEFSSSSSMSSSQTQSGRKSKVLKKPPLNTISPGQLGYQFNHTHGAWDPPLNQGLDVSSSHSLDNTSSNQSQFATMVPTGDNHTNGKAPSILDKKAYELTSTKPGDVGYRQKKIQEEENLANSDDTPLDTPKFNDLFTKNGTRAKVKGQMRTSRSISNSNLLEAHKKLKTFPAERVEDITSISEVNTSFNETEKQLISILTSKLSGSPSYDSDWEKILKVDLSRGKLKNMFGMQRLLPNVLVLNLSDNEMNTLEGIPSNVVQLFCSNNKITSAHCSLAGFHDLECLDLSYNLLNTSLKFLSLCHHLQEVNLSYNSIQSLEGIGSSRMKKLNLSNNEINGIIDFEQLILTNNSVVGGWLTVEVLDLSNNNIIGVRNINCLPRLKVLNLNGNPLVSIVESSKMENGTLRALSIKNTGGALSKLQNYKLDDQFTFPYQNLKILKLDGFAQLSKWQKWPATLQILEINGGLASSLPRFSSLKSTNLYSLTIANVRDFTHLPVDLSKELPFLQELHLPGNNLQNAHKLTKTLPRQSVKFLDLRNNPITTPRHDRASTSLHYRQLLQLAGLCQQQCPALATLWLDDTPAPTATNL
# Target: T1, 3Flag-tagged Nud1 (S. cerevisiae)
# Test: co-IP; 3Flag-tagged Nud1 and 3HA-tagged Dma2 from yeast cells in anaphase; the method of the native co-IP is not described in the text shown
binder,measurement,value
"3HA-tagged Dma2 (enzyme, UniProt P53924 1-522) MYTPIPANTPAPTAPTSSMTSNSSSASNANTTSSSGINPRNRASGTPSNERARPASGISSFLNTFGIRQNSQTASSSAAPDQRLFGTTPSNSHMSVAMESIDTAPQQQEPRLHHPIQMPLSAQFHVHRNYQLPISISLTAPTTTDHQQSSAHNFEGNNVGNVQESLNQRQPNGTNNTTTSIISMAPAATTRNIVGGADGSTIVNNSQEMYKNLRHLIYAANQPNGTEILHLDLPATSAEESNNMFNVDEVTLKQRKDKHGLFSIRLTPFIDSSSTTNQGLFFEPIIRKAGPGSQLVIGRYTERVRDAISKIPEQYHPVVFKSKVVSRTHGCFKVDSQGNWYIKDVKSSSGTFLNHQRLSPASSLSKDTPLRDGDILQLGMDFRGGTEEIYRCVRMRIELNRSWKLKANSFNKEALQRLQNLQKLTTGIEEEDCSICLCKIKPCQAIFISPCAHSWHFRCVRRLVMLSYPQFVCPNCRSSCDLEASFESSDEEDESDVESEGDQLVDQLSVLMETSKDVDSHP",binding,binds
